US20090123563A1 (NOVO NORDISK A/S, priority 2005, published 2009)

Tests used:
[1] = general procedure: Fmoc solid-phase peptide synthesis; Rink amide AM resin; DIC/HOAt/HOBt; conditions: whole synthesis, scale 0.25 mmol
[2] = general procedure: Fmoc solid-phase peptide synthesis; Rink amide AM resin (Novabiochem); DIC/HOAt/HOBt; conditions: whole synthesis

## H-Arg7-Lys(4-[3-(1H-Tetrazol-5-yl)carbazol-9-ylmethyl]benzoyl)-Arg6-NH2
[1]
  crude mass: 363 mg

## 4-[3-(1H-Tetrazol-5-yl)carbazol-9-ylmethyl]benzoyl-Glu (-Arg6-NH2)-Arg6-NH2
[2]
  isolated yield: 10%

## H-Arg-Lys(Arg-yl)-Lys(Arg-Lys(Arg-yl)-yl)-Lys(Arg-Lys(Arg-yl)-yl)-Lys(4-[3-(2H-tetrazol-5-yl)carbazol-9-ylmethyl]benzoyl)-NH2
[2]; scale 1 mmol
  crude mass: 1.5 g

## 4-[3-(2H-Tetrazol-5-yl)carbazol-9-ylmethyl]benzoyl-Lys(Arg6-yl)-Arg6-NH2
[2]; scale 0.82 mmol
  crude mass: 2.2 g
